According to patent US20100222280A1:
Results are given in words; binding and its absence hold for the method and conditions named. Binding calls can cover weak binding; strength is not graded here.

Target: biotinylated TGF-β1 (Homo sapiens (Human))
Experiment: phage display biopanning, peptide on M13 pIII

Q: Which binding does the source give for DRRIFWWSLRSAPGA [peptide identified by SEQ ID NO: 1] here?
A: The binding was “binds”.

Q: With DRRIFWWSNRSAPGA [peptide identified by SEQ ID NO: 2] as the binder, how does the binding read?
A: The binding was “binds”.

Q: RFFTRFPWHYHASRL [peptide identified by SEQ ID NO: 3] was tested. Which binding did it give?
A: The binding was “binds”.

Q: With RLAHSHRHRSHVALT [peptide identified by SEQ ID NO: 4] as the binder, how does the binding read?
A: The binding was “binds”.

Q: RRWVRYPVHLHSPIV [peptide identified by SEQ ID NO: 5] was tested. Which binding did it give?
A: The binding was “binds”.

Q: For PPYHRFWRGHRHAVQ [peptide identified by SEQ ID NO: 6], which binding is on record?
A: Its binding is “binds”.

Q: Which binding does the source give for HRISHFAHRYLARLH [peptide identified by SEQ ID NO: 7] here?
A: Its binding is “binds”.

Q: With WHWRHRIPLQLAAGR [peptide identified by SEQ ID NO: 8] as the binder, how does the binding read?
A: Its binding is “binds”.

Q: With GWHSLLHSRYHRLAA [peptide identified by SEQ ID NO: 9] as the binder, how does the binding read?
A: The binding was “binds”.

Q: How did the binding turn out when FVWVRFHRLPRQIYT [peptide identified by SEQ ID NO: 10] was run?
A: Its binding is “binds”.

Q: For WHKYFLRRPLSVRTR [peptide identified by SEQ ID NO: 11], which binding is on record?
A: The binding was “binds”.

Q: For WHKYFLRRPLSVGLG [peptide identified by SEQ ID NO: 12], which binding is on record?
A: Its binding is “binds”.

Q: RKWFLQHRRMPVSVL [peptide identified by SEQ ID NO: 13] was tested. Which binding did it give?
A: Its binding is “binds”.

Q: Which binding does the source give for SGRRHLHRHHIFSLP [peptide identified by SEQ ID NO: 14] here?
A: The binding was “binds”.

Q: How did the binding turn out when GWITFHRRHHDRVLS [peptide identified by SEQ ID NO: 15] was run?
A: Its binding is “binds”.

Q: For RLHGHRSHRFTHVAQ [peptide identified by SEQ ID NO: 16], which binding is on record?
A: The binding was “binds”.

Q: How did the binding turn out when KRIWFIPRSSWYERA [TGF-β1 inhibitor peptide P17 (SEQ ID NO: 17)] was run?
A: The binding was “binds”.

Q: For MPLSRYWWLFSHRPR [peptide identified by SEQ ID NO: 18], which binding is on record?
A: Its binding is “binds”.

Q: With RHLSHFKWLRSHGLD [peptide identified by SEQ ID NO: 19] as the binder, how does the binding read?
A: The binding was “binds”.

Q: How did the binding turn out when RRFHFHSRMVAVDNS [peptide identified by SEQ ID NO: 20] was run?
A: Its binding is “binds”.

Q: Which binding does the source give for HVRLHHYLRHRSLPN [peptide identified by SEQ ID NO: 21] here?
A: The binding was “binds”.

Q: With VPMALNHGVYVMVSS [peptide identified by SEQ ID NO: 22] as the binder, how does the binding read?
A: The binding was “binds”.
